Assay results as given in article PMC10326038.
No constants are given. Whether binding was seen depends on the method and setting. Binding seen in cells or lysates may run through a third protein. Some results given as binding are weak or reduced against the parent protein; the word gives no strength. Where a sequence is shown, tags or fusion partners need not be part of it.

Amino acid sequences for entries named in this document (tags omitted). A change or cut given only in a name is not applied to a line headed by its entry. Chains listed by the source or under a name are the forms on record and can include a tag or linker.
UniProt Q09472: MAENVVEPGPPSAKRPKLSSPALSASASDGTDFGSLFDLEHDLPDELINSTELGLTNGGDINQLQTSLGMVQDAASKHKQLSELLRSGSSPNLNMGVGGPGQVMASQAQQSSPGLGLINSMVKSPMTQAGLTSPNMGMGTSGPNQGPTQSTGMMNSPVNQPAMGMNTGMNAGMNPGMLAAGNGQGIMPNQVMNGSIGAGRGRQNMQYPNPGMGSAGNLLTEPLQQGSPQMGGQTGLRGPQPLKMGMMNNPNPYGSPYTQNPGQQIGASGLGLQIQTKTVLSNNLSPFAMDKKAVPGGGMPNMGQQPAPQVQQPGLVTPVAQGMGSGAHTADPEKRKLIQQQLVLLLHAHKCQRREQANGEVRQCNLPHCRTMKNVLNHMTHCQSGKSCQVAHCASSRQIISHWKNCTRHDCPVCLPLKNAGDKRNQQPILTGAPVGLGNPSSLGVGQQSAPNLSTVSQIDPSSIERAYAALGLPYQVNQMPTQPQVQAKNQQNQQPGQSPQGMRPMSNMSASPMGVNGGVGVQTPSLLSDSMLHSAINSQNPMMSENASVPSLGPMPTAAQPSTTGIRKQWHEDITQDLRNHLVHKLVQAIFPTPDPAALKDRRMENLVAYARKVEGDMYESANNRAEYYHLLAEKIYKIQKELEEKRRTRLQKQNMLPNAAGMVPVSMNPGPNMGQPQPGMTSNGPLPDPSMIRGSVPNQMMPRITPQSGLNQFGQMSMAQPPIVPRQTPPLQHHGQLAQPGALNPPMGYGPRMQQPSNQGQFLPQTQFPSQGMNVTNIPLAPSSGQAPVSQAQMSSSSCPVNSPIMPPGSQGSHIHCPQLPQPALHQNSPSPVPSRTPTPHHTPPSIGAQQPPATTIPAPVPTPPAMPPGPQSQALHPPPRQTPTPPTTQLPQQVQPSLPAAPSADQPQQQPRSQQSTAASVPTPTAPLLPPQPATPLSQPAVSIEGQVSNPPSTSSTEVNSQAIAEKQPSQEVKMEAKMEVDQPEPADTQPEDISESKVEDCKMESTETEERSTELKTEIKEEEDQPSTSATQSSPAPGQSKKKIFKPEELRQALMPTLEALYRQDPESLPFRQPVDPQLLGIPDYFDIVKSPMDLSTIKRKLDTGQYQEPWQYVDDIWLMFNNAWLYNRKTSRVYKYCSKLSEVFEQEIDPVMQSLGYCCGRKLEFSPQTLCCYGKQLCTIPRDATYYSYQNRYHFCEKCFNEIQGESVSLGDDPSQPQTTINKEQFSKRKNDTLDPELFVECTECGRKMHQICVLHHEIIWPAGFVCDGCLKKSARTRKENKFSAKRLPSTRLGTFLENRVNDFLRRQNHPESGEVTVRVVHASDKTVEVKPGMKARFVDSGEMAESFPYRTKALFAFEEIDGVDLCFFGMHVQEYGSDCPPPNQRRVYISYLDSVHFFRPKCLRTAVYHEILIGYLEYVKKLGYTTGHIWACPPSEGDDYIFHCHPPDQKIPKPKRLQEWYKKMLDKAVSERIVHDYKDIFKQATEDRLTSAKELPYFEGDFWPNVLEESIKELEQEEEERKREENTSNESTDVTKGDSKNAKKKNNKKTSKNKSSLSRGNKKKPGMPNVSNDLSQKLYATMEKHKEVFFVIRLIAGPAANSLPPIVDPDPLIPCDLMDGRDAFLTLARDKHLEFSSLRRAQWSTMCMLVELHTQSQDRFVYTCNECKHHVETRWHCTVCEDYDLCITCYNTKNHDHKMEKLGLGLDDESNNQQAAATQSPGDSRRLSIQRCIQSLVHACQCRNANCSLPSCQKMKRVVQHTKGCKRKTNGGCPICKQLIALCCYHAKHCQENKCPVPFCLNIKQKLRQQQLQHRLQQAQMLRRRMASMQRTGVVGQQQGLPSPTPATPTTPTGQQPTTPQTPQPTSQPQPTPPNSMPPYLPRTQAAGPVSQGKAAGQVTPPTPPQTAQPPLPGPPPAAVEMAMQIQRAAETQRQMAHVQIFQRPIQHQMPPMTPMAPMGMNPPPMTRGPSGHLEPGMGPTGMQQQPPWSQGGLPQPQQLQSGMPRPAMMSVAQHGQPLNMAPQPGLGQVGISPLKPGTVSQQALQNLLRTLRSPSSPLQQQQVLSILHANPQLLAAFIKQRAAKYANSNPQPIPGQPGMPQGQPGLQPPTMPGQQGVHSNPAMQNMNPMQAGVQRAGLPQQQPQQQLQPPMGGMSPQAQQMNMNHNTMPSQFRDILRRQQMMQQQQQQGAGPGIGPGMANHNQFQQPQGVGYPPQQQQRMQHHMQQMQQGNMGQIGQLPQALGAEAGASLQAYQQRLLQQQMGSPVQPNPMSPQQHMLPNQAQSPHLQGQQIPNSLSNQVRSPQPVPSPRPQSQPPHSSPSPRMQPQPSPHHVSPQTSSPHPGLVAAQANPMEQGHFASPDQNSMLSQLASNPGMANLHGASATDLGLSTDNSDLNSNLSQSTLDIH
UniProt Q13547: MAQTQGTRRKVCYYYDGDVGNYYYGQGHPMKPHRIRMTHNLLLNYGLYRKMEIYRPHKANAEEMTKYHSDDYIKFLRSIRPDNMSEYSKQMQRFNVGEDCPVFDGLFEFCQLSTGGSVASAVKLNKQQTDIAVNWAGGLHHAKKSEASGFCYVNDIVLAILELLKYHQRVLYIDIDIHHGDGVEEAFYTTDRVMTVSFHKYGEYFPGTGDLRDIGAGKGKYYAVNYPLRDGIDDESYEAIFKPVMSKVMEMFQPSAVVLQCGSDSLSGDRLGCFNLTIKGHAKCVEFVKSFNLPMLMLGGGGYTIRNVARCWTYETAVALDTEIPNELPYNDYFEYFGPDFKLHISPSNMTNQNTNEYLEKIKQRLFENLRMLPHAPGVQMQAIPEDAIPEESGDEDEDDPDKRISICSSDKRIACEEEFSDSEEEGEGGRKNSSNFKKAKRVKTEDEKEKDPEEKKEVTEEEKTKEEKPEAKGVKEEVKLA
C-terminally FLAG-tagged deacetylase inactive HDAC1 (Tyrosine 303 converted to histidine) (Q13547, form named): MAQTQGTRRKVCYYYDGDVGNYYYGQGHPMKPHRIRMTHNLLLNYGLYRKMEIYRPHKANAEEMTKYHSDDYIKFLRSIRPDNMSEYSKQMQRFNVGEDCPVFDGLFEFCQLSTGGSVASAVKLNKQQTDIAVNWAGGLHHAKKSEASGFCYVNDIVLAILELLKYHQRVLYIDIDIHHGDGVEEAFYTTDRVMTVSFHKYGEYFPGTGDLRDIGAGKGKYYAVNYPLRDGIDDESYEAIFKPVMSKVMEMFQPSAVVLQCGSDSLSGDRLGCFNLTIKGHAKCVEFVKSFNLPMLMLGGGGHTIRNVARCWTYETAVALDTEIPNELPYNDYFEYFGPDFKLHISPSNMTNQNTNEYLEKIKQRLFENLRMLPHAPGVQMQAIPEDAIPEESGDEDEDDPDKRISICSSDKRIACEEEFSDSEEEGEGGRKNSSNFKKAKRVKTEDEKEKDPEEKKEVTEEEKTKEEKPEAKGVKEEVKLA
UniProt Q15796: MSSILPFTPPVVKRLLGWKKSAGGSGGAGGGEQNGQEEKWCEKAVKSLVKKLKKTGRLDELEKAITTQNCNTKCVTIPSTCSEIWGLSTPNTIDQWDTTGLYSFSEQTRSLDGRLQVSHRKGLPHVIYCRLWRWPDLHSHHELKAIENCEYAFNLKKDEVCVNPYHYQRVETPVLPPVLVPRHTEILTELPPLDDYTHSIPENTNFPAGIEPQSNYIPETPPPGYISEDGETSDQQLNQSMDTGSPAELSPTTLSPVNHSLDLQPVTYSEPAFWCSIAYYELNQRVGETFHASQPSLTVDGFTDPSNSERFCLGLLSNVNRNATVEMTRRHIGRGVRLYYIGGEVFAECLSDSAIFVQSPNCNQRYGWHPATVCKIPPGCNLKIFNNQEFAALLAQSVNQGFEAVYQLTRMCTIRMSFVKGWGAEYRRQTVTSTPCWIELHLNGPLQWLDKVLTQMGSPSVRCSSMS
UniProt Q13485: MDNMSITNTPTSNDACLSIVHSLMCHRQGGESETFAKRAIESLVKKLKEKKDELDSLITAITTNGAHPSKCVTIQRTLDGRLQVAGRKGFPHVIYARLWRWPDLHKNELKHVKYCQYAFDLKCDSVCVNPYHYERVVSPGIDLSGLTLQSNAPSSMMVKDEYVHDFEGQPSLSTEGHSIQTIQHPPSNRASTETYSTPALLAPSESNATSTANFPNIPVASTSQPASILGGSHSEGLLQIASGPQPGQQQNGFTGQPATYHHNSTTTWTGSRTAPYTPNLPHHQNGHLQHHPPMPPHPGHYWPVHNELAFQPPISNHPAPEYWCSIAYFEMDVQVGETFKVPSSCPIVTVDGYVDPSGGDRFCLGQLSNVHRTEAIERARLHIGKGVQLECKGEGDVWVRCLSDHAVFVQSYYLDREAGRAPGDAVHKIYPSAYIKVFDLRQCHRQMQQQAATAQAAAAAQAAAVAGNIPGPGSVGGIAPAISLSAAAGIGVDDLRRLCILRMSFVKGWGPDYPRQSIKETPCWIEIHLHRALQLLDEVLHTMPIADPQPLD

Columns and labels:
[1] = molecular target: C-terminally hemagglutinin tagged p300 (UniProt Q09472); assay: co-IP; Renilla luciferase-based co-immunoprecipitation: lysates (TNTE buffer) of HEK293T cells co-expressing RLuc-fused SnoN forms and p300/HA; α-HA IP; luciferase activity of the immunocomplexes relative to input
[2] = molecular target: C-terminally FLAG-tagged deacetylase inactive HDAC1 (Tyrosine 303 converted to histidine) (UniProt Q13547); assay: co-IP; Renilla luciferase-based co-immunoprecipitation: lysates (TNTE buffer) of HEK293T cells co-expressing RLuc-fused SnoN forms and HDAC1/FLAG or HDAC1YH/FLAG; α-FLAG IP; luciferase activity of the immunocomplexes relative to input
[3] = molecular target: C-terminally FLAG-tagged histone deacetylase 1 (UniProt Q13547); assay: as above
[4] = molecular target: hemagglutinin-tagged Smad2 (UniProt Q15796); assay: co-IP; Renilla luciferase-based co-immunoprecipitation: lysates (TNTE buffer: 50 mM Tris, 150 mM NaCl, 0.5% Triton X-100, 1 mM EDTA) of HEK293T cells co-expressing RLuc-fused SnoN forms, HA/Smad2 or HA/Smad4 and constitutively active TβRI TD; α-HA IP; luciferase activity of the immunocomplexes relative to input
[5] = molecular target: hemagglutinin-tagged Smad4 (UniProt Q13485); assay: as above

Row | binding [1] | binding [2] | binding [3] | binding [4] | binding [5] | Binder
1 | binds | binds | binds | binds | binds | Renilla Luciferase (RLuc) tagged-SnoN, wild type (protein, UniProt P12757-1 1-684) MENLQTNFSLVQGSTKKLNGMGDDGSPPAKKMITDIHANGKTINKVPTVKKEHLDDYGEAPVETDGEHVKRTCTSVPETLHLNPSLKHTLAQFHLSSQSSLGGPAAFSARHSQESMSPTVFLPLPSPQVLPGPLLIPSDSSTELTQTVLEGESISCFQVGGEKRLCLPQVLNSVLREFTLQQINTVCDELYIYCSRCTSDQLHILKVLGILPFNAPSCGLITLTDAQRLCNALLRPRTFPQNGSVLPAKSSLAQLKETGSAFEVEHECLGKCQGLFAPQFYVQPDAPCIQCLECCGMFAPQTFVMHSHRSPDKRTCHWGFESAKWHCYLHVNQKYLGTPEEKKLKIILEEMKEKFSMRSGKRNQSKTDAPSGMELQSWYPVIKQEGDHVSQTHSFLHPSYYLYMCDKVVAPNVSLTSAVSQSKELTKTEASKSISRQSEKAHSSGKLQKTVSYPDVSLEEQEKMDLKTSRELCSRLDASISNNSTSKRKSESATCNLVRDINKVGIGLVAAASSPLLVKDVICEDDKGKIMEEVMRTYLKQQEKLNLILQKKQQLQMEVKMLSSSKSMKELTEEQQNLQKELESLQNEHAQRMEEFYVEQKDLEKKLEQIMKQKCTCDSNLEKDKEAEYAGQLAELRQRLDHAEADRQELQDELRQEREARQKLEMMIKELKLQILKSSKTAKE
2 | – | – | binds | binds | binds | Renilla luciferase-tagged SnoNKdR (SUMO loss of function SnoN, Lysines 50 and 383 converted to arginine) (protein, UniProt P12757-1 1-684) MENLQTNFSLVQGSTKKLNGMGDDGSPPAKKMITDIHANGKTINKVPTVRKEHLDDYGEAPVETDGEHVKRTCTSVPETLHLNPSLKHTLAQFHLSSQSSLGGPAAFSARHSQESMSPTVFLPLPSPQVLPGPLLIPSDSSTELTQTVLEGESISCFQVGGEKRLCLPQVLNSVLREFTLQQINTVCDELYIYCSRCTSDQLHILKVLGILPFNAPSCGLITLTDAQRLCNALLRPRTFPQNGSVLPAKSSLAQLKETGSAFEVEHECLGKCQGLFAPQFYVQPDAPCIQCLECCGMFAPQTFVMHSHRSPDKRTCHWGFESAKWHCYLHVNQKYLGTPEEKKLKIILEEMKEKFSMRSGKRNQSKTDAPSGMELQSWYPVIRQEGDHVSQTHSFLHPSYYLYMCDKVVAPNVSLTSAVSQSKELTKTEASKSISRQSEKAHSSGKLQKTVSYPDVSLEEQEKMDLKTSRELCSRLDASISNNSTSKRKSESATCNLVRDINKVGIGLVAAASSPLLVKDVICEDDKGKIMEEVMRTYLKQQEKLNLILQKKQQLQMEVKMLSSSKSMKELTEEQQNLQKELESLQNEHAQRMEEFYVEQKDLEKKLEQIMKQKCTCDSNLEKDKEAEYAGQLAELRQRLDHAEADRQELQDELRQEREARQKLEMMIKELKLQILKSSKTAKE
